# From publication PMC6925144, “A prospective compound screening contest identified broader inhibitors for Sirtuin 1” (Scientific Reports, 2019)
# Chains of the proteins cited; added tags and fusions are not shown. Residues count along the entry.
# UniProt Q96EB6, 2-747 limits assumed: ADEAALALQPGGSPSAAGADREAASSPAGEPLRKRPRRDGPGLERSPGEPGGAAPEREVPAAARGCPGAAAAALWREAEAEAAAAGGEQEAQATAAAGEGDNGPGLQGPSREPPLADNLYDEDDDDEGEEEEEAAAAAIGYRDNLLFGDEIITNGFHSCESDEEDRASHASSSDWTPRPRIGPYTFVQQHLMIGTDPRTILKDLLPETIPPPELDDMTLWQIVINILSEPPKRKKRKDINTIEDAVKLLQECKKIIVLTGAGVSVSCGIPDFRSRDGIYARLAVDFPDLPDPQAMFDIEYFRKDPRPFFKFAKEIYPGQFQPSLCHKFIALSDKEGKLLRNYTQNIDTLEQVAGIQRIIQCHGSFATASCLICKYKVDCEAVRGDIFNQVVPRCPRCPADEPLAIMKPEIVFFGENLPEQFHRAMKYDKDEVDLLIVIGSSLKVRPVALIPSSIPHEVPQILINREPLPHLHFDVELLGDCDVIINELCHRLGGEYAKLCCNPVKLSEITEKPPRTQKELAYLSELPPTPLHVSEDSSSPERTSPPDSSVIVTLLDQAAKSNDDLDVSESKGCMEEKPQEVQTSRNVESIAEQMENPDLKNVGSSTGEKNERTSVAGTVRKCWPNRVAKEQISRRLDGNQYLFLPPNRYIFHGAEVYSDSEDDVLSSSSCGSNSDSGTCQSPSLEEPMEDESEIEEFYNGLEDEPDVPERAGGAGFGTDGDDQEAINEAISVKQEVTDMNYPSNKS
# The full ranking holds about 3,200 compounds; the median of “TSA(without NAD+) / Primary screening (TSA) / delta Tm (K)” is about -0.07, and the highest 2% start at about 0.37. This is one part of the list. Peptide text beside a SMILES is read from it.
# Target: NAD-dependent deacetylase Sirtuin 1 (human, UniProt Q96EB6)
# Test: primary screen, delta tm
# Parameters: single well (n = 1)
# Details: 10 µM
# Summary of the method: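 Thermal shift of Sirtuin 1 measured without NAD+, compound at 10 µM (n = 1); value is ΔTm, with hits defined as ΔTm > 0.45 K or < −1.5 K. Hits retested at 5, 10, 20 µM (n = 4) and counterscreened on bovine carbonic anhydrase and ABL1 SH2 domain.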
row,Structure (SMILES),TSA(without NAD+) / Primary screening (TSA) / delta Tm (K)
1,COc1cccc(-c2nnc(SC3CCCCC3=O)n2-c2ccccc2)c1 (stereo not drawn),-0.14
2,C=CCOc1ccc(C(=O)C2=C(O)C(=O)N(CCCN3CCOCC3)C2c2cccs2)cc1 (stereo not drawn),-0.13
3,Cc1cccc(Oc2ccc(NC(=O)c3cncc(Br)c3)cc2)c1,-0.04
4,OCCCNc1ccc2nnc(C(F)(F)F)n2n1,-0.13
5,NC(=O)C1CCN(c2ncnc3cc(-c4ccc(Cl)cc4)sc23)C1 (stereo not drawn),-0.03
6,Cc1nc2c(cnn2-c2ccc(F)cc2)c(=O)[nH]1,-0.22
7,Cc1ccc(N(C)S(=O)(=O)c2cccc(C(=O)Nc3ccc4c(c3)C(=O)N(C)C4=O)c2)cc1,0.45
8,Cc1cc(C)c(NCc2cc(=O)n3ccsc3n2)c(Cl)c1,-0.03
9,NC(=O)c1ccc(NC(=O)c2sccc2S(=O)(=O)N2CCCCC2)cc1,-0.03
10,CC(=O)NCC(=O)NCC(=O)N(C)C (Ac-Gly-Gly-NMe2),-0.11
11,CN(c1cccc(Cl)c1)S(=O)(=O)c1cccc(C(=O)Nc2cccc(C#N)c2)c1,0.32
12,CN(C(=O)Cc1cccc2ccccc12)C1C2CC3CC(C2)CC1C3 (stereo not drawn),-0.22
13,CC(Oc1ccc2[nH]c3ccccc3c(=O)c2c1)C(=O)NC(=O)NC12CC3CC(CC(C3)C1)C2 (stereo not drawn),0.35
14,O=C(COC(=O)CN1C(=O)C2CCCCC2C1=O)Nc1cc(C(F)(F)F)ccc1Cl (stereo not drawn),0.02
15,COc1ccc(CN(C(=O)COC(=O)c2ccc(C(N)=O)cc2)C2CC2)cc1,0.08
16,O=C1CC(Cc2ccccc2)C(=O)N1 (stereo not drawn),-0.14
17,COc1ccc(NS(=O)(=O)c2cccs2)cc1S(N)(=O)=O,-0.13
18,Cc1nc2ccccc2c(C)c1CC(=O)Nc1ccc(N2CCN(Cc3ccccc3)CC2)cc1,0.25
19,Cc1ccc(N(C)S(=O)(=O)c2cccc(C(=O)Nc3ccc(C)cc3C)c2)cc1,-0.03
20,Cc1cc2oc(=O)cc(CN3C(=O)NC4(CCCCC4)C3=O)c2cc1C,-0.12

row,Structure (SMILES),TSA(without NAD+) / Primary screening (TSA) / delta Tm (K)
1,COc1ccc(-c2noc(CN3CCN(c4ncnc5sc6c(c45)CCC(C)C6)CC3)n2)cc1 (stereo not drawn),0.02
2,CCS(=O)(=O)NCCC(=O)O,-0.14
3,CC(C)c1ccc(C(NC(=O)c2cccc(C(N)=O)c2)c2cccs2)cc1 (stereo not drawn),-0.18
4,COCCNC(=O)CSc1ccccc1C(=O)Nc1ccc(C(N)=O)cc1,-0.04
5,COc1cc(CN(C)C(=O)c2cccc(C#N)c2)ccc1OCc1ccccc1,0.07
6,CCC(CO)Nc1ncnc2ccsc12 (stereo not drawn),-0.08
7,Cc1nc(NCc2cncnc2)ccc1I,-0.27
8,O=S(=O)(NC1=NCCC1)c1cccc(NS(=O)(=O)c2ccc(C34CC5CC(CC(C5)C3)C4)cc2)c1,0.15
9,O=C(Nc1cccc(S(=O)(=O)NC2=NCCC2)c1)c1cnc2ccccc2n1,-0.05
10,Cc1ccc(C)c(CN(C)CC(N)=O)c1,0.02
11,NCCNC1CC1,-0.21
12,CN(c1ccc(S(N)(=O)=O)cc1)S(=O)(=O)c1cccc(C#N)c1,-0.12
13,Cc1cccc(C=C2C(=O)NC(=S)NC2=O)c1,-0.07
14,CCC(CC)N(c1ccc(C)c(C)c1)S(=O)(=O)c1cnc2c(c1)c(=O)[nH]c(=O)n2C,-0.23
15,CC(OC(=O)CC1Oc2ccccc2NC1=O)C(=O)Nc1ccc(C(N)=O)cc1 (stereo not drawn),-0.12
16,CC(CN)N(C)C (stereo not drawn),-0.17
17,CCN(Cc1cccc(F)c1)C(=O)c1cnc2ccccn2c1=O,-0.24
18,Cc1noc(C)c1COc1ccc(C(=O)N2CCCC2c2ccc[nH]2)cc1 (stereo not drawn),0.08
19,COc1cc(SC)ccc1C(=O)N(Cc1ccccc1)c1ccccc1,-0.22
20,COc1ccc(NC(=S)NN)cc1OC,0.37

row,Structure (SMILES),TSA(without NAD+) / Primary screening (TSA) / delta Tm (K)
1,Fc1ccc(-n2ncc3c(S)ncnc32)cc1,-0.24
2,CN(c1ccccc1)S(=O)(=O)c1cccc(C(=O)OCc2cc(=O)oc3cc(O)ccc23)c1,0.18
3,C#CCCN,-0.24
4,N#Cc1ccc(F)c(CNC(=O)NC2CCCCNC2=O)c1 (stereo not drawn),0.06
5,Cc1nc2ncnn2c(N2CCC(C(=O)Nc3cccnc3)CC2)c1C,-0.04
6,COc1cc(CN(C)C(=O)Cc2c(C)nc3ccccc3c2C)ccc1OCc1ccccc1,-0.08
7,NS(=O)(=O)c1cccc(NC(=O)CSc2n[nH]c(=O)n2Cc2ccccc2)c1,-0.08
8,COc1cc(CN(C)C(=O)c2cccc(NC(C)=O)c2)ccc1OCc1ccccc1,0.02
9,O=C(c1sc(N2CCOCC2)nc1-c1ccccc1)c1c[nH]c2ccccc12,-0.03
10,CC(C)n1c(S)nnc1CCNC(=O)/C=C/c1ccc(Br)o1,-0.05
11,Cc1ccc2[nH]cc(C(=O)C(F)(F)F)c2c1,-0.07
12,CN(CC12CC3CC(CC(C3)C1)C2)C(=O)c1cc2ccccc2oc1=O,-0.02
13,Cc1ccc(-c2csc3ncn(CC(=O)NCC(=O)Nc4cccc(C)c4C)c(=O)c23)s1,0.03
14,CCCNC(=O)CN1CCN(c2c(C)cnc3ccccc23)CC1,-0.07
15,CCOC(=O)c1ncn(C2CCN(c3ncnc4c(F)cccc34)CC2)c1N,-0.18
16,CCS(=O)(=O)c1ccc(N2CCC(Cc3cccnc3)CC2)cc1,-0.13
17,O=c1[nH]c(CN(Cc2ccco2)C2CCCC2)nc2c1oc1ccccc12,-0.11
18,O=c1[nH]cnc2c1nnn2-c1ccccc1,-0.12
19,Clc1ccc2c(N3CCN(Cc4ccc5c(c4)CCO5)CC3)ncnc2c1,0.08
20,COc1ccc(OCC(=O)NCC2(C)CC(NC(=O)COc3ccc(OC)cc3)CC(C)(C)C2)cc1 (stereo not drawn),-0.02

# Fetched by structure from the list above, 4 records:
row,Structure (SMILES),TSA(without NAD+) / Primary screening (TSA) / delta Tm (K)
4,N#Cc1ccc(F)c(CNC(=O)NC2CCCCNC2=O)c1 (stereo not drawn),0.06
6,COc1cc(CN(C)C(=O)Cc2c(C)nc3ccccc3c2C)ccc1OCc1ccccc1,-0.08
1,Fc1ccc(-n2ncc3c(S)ncnc32)cc1,-0.24
18,O=c1[nH]cnc2c1nnn2-c1ccccc1,-0.12
